Experimental findings from the supplement of paper PMC12819154, “High-throughput peptide-centric local stability assay extends protein–ligand identification to membrane proteins, tissues and bacteria” (Nature Structural & Molecular Biology, 2025) are described below.

Protein sequences, listed by entry. Tags and fused reporters are not part of them. Lines headed by an entry give the natural chain unless they say otherwise; changes in a name come on top.
UniProt P09411: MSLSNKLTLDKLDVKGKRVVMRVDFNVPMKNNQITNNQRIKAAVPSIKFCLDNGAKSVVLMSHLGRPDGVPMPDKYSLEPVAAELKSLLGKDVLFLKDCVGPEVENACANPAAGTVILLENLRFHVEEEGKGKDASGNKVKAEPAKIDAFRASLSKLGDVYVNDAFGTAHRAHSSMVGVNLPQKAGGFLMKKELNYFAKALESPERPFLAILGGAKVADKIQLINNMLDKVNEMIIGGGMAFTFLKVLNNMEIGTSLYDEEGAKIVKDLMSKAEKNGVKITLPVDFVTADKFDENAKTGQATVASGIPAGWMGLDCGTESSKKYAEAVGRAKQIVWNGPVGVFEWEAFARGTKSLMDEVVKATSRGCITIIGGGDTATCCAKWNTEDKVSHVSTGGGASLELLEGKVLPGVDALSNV
UniProt P07758: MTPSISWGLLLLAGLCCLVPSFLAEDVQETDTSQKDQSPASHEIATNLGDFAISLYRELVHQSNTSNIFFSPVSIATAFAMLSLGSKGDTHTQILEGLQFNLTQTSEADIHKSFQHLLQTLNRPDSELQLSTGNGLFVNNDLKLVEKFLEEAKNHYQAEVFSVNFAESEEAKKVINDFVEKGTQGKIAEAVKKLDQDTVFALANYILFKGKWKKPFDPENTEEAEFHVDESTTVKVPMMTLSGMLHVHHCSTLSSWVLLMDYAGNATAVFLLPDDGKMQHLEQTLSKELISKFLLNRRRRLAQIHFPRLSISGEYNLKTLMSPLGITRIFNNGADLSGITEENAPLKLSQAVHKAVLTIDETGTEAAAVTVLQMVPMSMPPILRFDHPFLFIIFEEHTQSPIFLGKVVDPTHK
UniProt P04627: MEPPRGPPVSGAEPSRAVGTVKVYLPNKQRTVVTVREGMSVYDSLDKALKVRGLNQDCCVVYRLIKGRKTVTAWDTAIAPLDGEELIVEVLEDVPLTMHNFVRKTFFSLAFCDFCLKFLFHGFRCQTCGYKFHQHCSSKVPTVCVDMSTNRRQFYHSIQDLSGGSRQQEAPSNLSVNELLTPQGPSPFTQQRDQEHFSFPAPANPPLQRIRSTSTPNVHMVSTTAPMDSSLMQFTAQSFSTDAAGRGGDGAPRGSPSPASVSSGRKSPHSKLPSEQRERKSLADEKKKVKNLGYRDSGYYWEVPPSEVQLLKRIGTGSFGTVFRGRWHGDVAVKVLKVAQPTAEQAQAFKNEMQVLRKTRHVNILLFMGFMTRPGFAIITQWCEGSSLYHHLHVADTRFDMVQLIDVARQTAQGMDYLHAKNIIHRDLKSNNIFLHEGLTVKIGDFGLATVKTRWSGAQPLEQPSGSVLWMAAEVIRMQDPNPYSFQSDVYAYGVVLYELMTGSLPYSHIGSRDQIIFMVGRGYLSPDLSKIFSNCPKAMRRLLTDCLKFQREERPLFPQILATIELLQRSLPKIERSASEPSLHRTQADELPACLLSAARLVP
UniProt P06837, whole entry: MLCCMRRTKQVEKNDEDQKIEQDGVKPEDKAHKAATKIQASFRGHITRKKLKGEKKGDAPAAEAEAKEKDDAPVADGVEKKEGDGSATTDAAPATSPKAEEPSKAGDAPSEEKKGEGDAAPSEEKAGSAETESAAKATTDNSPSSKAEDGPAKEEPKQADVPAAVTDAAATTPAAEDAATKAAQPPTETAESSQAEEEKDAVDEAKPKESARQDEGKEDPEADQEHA
UniProt P0DN34: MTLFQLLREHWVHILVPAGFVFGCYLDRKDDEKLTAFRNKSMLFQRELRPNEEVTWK
UniProt P04247: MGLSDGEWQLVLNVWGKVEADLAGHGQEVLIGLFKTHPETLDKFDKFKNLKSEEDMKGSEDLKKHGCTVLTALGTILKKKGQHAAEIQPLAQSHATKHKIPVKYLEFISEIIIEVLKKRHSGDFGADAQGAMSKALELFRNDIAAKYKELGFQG
UniProt P11862, whole entry: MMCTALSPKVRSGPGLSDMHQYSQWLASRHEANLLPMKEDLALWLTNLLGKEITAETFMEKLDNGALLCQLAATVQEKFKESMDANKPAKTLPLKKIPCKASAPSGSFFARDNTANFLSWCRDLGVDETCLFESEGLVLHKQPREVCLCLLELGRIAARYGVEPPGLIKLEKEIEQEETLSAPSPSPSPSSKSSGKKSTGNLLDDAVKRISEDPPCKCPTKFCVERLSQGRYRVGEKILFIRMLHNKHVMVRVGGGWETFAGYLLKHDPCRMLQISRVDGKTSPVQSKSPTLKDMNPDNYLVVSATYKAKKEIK
UniProt P04230, whole entry: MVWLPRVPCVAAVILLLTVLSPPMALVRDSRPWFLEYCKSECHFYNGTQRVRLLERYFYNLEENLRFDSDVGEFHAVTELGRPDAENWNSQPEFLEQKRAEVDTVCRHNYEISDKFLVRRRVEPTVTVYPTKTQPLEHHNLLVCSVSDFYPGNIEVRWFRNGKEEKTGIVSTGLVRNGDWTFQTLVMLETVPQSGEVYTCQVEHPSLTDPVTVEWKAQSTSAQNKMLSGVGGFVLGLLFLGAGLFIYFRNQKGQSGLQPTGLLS
UniProt P15314: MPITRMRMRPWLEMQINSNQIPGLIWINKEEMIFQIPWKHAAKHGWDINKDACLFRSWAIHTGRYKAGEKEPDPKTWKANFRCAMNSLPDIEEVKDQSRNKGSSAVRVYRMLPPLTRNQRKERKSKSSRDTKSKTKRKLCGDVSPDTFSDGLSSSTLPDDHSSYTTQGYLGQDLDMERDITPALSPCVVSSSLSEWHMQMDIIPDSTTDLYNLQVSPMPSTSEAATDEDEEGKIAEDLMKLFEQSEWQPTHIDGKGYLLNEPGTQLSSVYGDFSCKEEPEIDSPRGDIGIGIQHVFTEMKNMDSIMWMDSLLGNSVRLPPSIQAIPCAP
UniProt P08607: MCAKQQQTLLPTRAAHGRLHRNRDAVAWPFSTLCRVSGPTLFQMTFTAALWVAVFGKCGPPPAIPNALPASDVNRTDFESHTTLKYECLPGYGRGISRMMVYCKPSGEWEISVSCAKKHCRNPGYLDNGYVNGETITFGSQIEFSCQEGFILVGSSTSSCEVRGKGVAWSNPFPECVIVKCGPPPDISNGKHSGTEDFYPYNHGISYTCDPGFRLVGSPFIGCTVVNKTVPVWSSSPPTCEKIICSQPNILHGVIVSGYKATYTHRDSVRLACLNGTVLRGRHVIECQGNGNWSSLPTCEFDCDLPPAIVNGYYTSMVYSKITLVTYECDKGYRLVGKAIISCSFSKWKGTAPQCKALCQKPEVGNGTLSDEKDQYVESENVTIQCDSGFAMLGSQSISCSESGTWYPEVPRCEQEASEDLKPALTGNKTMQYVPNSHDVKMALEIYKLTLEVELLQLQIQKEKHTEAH
UniProt O89016: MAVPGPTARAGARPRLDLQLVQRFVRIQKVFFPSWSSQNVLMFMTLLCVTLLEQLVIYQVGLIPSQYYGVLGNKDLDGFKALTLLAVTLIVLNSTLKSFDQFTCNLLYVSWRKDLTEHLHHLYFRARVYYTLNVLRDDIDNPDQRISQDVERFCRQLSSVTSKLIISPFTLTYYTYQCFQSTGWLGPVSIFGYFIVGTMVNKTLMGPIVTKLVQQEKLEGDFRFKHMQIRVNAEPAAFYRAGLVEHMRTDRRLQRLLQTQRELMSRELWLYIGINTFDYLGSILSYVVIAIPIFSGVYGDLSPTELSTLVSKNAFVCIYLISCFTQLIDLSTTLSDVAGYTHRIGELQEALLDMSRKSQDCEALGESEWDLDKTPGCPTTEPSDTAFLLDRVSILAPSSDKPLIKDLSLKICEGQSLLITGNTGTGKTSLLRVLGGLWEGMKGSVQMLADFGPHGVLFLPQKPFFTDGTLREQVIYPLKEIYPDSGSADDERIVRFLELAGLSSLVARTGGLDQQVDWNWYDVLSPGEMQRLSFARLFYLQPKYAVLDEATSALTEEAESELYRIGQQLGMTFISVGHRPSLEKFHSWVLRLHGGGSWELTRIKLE
UniProt P00158: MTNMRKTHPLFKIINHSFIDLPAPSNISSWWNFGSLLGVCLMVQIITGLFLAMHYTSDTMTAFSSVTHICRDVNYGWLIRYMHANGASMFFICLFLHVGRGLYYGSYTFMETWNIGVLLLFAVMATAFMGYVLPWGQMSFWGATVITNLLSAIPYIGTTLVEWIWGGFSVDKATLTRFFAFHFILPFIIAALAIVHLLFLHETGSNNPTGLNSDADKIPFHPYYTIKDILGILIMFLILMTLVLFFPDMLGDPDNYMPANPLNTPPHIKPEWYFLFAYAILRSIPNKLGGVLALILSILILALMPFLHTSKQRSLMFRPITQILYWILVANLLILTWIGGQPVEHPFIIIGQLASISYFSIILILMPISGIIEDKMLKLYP
UniProt P10833: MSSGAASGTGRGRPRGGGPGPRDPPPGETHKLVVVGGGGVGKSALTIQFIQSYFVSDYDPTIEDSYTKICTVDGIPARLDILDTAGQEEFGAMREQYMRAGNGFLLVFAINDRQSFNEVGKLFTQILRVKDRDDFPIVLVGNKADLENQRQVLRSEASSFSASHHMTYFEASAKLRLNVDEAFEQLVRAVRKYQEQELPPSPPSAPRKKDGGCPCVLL
UniProt P14152: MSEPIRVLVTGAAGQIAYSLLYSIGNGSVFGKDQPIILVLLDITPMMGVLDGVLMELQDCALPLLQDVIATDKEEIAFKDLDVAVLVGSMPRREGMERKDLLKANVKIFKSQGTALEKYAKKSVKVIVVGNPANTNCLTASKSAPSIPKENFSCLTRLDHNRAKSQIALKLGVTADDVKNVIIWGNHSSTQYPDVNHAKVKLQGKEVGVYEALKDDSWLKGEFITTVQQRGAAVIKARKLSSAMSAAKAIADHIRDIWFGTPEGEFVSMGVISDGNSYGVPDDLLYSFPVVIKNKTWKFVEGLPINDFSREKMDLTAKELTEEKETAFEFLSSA
UniProt P14483: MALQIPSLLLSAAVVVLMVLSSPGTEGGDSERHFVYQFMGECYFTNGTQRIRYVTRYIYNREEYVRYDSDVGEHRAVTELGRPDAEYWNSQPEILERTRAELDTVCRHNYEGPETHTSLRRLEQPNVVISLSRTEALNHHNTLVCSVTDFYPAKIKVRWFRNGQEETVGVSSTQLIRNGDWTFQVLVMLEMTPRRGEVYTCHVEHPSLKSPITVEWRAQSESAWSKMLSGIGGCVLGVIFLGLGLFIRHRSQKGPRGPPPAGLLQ
UniProt O89116: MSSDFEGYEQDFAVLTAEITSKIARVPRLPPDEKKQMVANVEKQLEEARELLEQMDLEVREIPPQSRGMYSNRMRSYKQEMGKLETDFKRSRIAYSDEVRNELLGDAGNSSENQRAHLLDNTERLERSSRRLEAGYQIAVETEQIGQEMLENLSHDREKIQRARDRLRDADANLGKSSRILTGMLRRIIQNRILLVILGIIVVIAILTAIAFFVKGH
UniProt P10852: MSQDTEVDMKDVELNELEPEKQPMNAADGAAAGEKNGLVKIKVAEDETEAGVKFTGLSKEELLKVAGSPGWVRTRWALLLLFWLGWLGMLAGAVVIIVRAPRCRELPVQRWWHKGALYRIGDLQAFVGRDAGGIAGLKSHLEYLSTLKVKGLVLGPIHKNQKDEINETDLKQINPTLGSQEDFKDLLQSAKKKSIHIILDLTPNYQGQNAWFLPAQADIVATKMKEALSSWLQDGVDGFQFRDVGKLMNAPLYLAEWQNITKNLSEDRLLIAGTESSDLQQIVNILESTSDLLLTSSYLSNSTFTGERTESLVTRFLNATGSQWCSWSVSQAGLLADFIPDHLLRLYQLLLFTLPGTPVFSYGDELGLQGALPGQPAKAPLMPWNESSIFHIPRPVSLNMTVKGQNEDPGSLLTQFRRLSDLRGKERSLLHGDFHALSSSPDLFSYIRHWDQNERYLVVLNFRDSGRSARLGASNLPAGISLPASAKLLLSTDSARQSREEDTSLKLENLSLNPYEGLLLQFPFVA
UniProt O88908: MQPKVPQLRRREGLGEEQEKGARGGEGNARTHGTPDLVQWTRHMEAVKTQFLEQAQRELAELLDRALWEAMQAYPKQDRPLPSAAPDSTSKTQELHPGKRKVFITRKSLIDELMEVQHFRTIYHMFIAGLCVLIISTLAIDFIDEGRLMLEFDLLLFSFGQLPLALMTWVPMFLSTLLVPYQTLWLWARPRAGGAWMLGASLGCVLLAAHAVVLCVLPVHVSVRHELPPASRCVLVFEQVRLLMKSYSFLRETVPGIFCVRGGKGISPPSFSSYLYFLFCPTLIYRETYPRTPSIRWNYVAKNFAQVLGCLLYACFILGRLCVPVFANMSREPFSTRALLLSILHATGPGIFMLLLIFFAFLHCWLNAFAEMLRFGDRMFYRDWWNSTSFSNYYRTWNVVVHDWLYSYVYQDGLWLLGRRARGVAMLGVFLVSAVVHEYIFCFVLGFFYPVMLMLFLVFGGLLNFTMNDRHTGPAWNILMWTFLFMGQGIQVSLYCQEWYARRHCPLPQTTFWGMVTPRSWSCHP
UniProt P14847: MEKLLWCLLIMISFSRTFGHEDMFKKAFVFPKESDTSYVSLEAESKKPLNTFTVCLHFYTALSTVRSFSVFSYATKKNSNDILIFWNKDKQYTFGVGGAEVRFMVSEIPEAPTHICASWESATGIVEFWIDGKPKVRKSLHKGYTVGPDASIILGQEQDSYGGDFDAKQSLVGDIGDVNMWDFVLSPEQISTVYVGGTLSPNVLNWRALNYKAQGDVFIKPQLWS

Some of the results follow. Most entries show no effect beyond the scatter of the controls.

Compound in this assay: CN[C@@H]1C[C@H]2O[C@@](C)([C@@H]1OC)n1c3ccccc3c3c4c(c5c6ccccc6n2c5c31)C(=O)NC4 [staurosporine]
As to the kind of experiment: log2 fold change of tryptic peptide abundance, ligand vs vehicle (limited proteolysis) (log2 ratio); higher = more trypsin-susceptible (destabilized). The conditions noted are these: ligand concentration: 20 uM; sample: mouse liver crude lysate; replicate design: treated separately.
Turning to “UniProt P09411 (peptide sequence: SVVLMSHLGRPDGVPMPDK, peptide start residue: 57)”, the log2 fold change turned out to be 0.431.

In the case of “UniProt P12382 (peptide sequence: KVVAFSPVTELKK, peptide start residue: 715)”, the log2 fold change was -0.379.

Take “UniProt P07758 (peptide sequence: KVINDFVEKGTQGK, peptide start residue: 173)”: the log2 fold change was found to be 0.343.

On to “UniProt P00920 (peptide sequence: DFPIANGDR, peptide start residue: 19)”, for which the log2 fold change was -0.144.

As for “UniProt P04627 (peptide sequence: VAQPTAEQAQAFKNEMQVLRK, peptide start residue: 338)”, the log2 fold change is -0.619.

On to “UniProt P06837 (peptide sequence: AGSAETESAAK, peptide start residue: 126)”, for which the log2 fold change was -0.653.

As to “UniProt P0DN34 (peptide sequence: TLFQLLR, peptide start residue: 2)”, the log2 fold change came to 0.241.

Consider “UniProt P04184 (peptide sequence: YSNSFSTHDR, peptide start residue: 61)”, for which the log2 fold change was determined as 0.089.

As for “UniProt P04247 (peptide sequence: HGCTVLTALGTILKK, peptide start residue: 65)”, the log2 fold change is -0.065.

For the target “UniProt P07356 (peptide sequence: KELPSALK, peptide start residue: 81)”, the log2 fold change is -0.18.

In the case of “UniProt P11862 (peptide sequence: EITAETFMEK, peptide start residue: 52)”, the log2 fold change was found to be 0.188.

Turning to “UniProt P13439 (peptide sequence: IDADMVGR, peptide start residue: 189)”, the log2 fold change is 0.147.

In the case of “UniProt P07309 (peptide sequence: TAESGELHGLTTDEKFVEGVYR, peptide start residue: 69)”, the log2 fold change is -0.235.

For the target “UniProt P04230 (peptide sequence: TGIVSTGLVR, peptide start residue: 135)”, the log2 fold change was -0.479.

Consider “UniProt P15314 (peptide sequence: HGWDINKDACLFR, peptide start residue: 44)”, for which the log2 fold change is 0.676.

As for “UniProt P08607 (peptide sequence: ITLVTYECDKGYR, peptide start residue: 322)”, the log2 fold change turned out to be 0.192.

“UniProt O89016 (peptide sequence: LHGGGSWELTR, peptide start residue: 592)”: the log2 fold change amounted to 0.346.

In the case of “UniProt P00158 (peptide sequence: KTHPLFK, peptide start residue: 6)”, the log2 fold change is -0.323.

In the case of “UniProt P09055 (peptide sequence: SAVTTVVNPK, peptide start residue: 785)”, the log2 fold change was -0.139.

With “UniProt P10833 (peptide sequence: LVVVGGGGVGK, peptide start residue: 17)”, the log2 fold change was -0.112.

For the target “UniProt P14152 (peptide sequence: KLSSAMSAAK, peptide start residue: 239)”, the log2 fold change is -0.332.

For the target “UniProt P11725 (peptide sequence: LQAFQGYQVTMKTAK, peptide start residue: 278)”, the log2 fold change was determined as 0.645.

Turning to “UniProt P14483 (peptide sequence: YDSDVGEHR, peptide start residue: 67)”, the log2 fold change is -0.295.

Regarding “UniProt O89116 (peptide sequence: SYKQEMGKLETDFK, peptide start residue: 76)”, the log2 fold change amounted to 0.373.

“UniProt P09602 (peptide sequence: GKADAGKDANNPAENGDAK, peptide start residue: 58)”: the log2 fold change was -0.221.

Turning to “UniProt P10852 (peptide sequence: VAEDETEAGVK, peptide start residue: 43)”, the log2 fold change is -0.215.

Turning to “UniProt P05064 (peptide sequence: ADDGRPFPQVIK, peptide start residue: 88)”, the log2 fold change is 0.437.

With “UniProt P0DJE0 (peptide sequence: QELEEFK, peptide start residue: 51)”, the log2 fold change was -0.178.

On to “UniProt O88908 (peptide sequence: QDRPLPSAAPDSTSK, peptide start residue: 77)”, for which the log2 fold change worked out at 0.19.

For “UniProt P0DP99 (peptide sequence: KLEEIKK, peptide start residue: 30)”, the log2 fold change is 0.0802.

Take “UniProt P14847 (peptide sequence: QYTFGVGGAEVR, peptide start residue: 91)”: the log2 fold change is -0.316.
